# The supplement of paper PMC12823440, “Inhibitors supercharge kinase turnover through native proteolytic circuits” (Nature, 2025)
# Amino acid sequences for entries named in this document (tags omitted). A change or cut given only in a name is not applied to a line headed by its entry.
# UniProt P29317, whole entry: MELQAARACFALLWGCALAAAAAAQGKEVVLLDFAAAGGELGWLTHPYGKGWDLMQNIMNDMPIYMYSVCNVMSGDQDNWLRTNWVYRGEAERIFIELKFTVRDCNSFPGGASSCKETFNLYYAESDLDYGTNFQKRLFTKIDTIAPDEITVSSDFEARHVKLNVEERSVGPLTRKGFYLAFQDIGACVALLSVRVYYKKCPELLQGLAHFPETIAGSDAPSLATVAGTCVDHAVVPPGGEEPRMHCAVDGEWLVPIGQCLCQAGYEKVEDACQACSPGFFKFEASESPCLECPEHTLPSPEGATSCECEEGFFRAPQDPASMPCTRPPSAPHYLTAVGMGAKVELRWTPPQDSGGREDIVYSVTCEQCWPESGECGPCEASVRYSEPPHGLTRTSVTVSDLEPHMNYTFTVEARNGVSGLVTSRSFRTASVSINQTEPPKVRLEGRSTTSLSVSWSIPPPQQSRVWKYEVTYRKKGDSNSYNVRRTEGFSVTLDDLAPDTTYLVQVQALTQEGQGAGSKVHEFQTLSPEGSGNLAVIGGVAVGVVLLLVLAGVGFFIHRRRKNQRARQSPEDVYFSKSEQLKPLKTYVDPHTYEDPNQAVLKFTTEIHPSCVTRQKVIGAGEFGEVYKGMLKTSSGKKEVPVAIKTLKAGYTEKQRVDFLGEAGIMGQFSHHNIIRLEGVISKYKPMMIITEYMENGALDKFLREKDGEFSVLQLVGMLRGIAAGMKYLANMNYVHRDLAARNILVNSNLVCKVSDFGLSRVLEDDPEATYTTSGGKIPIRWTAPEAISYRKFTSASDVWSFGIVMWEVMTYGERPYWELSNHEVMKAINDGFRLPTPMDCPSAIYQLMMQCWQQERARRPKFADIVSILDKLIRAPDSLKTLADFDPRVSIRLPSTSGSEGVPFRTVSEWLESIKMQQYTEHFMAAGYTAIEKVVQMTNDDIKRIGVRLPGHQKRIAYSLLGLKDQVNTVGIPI
# UniProt Q15303, whole entry R711C: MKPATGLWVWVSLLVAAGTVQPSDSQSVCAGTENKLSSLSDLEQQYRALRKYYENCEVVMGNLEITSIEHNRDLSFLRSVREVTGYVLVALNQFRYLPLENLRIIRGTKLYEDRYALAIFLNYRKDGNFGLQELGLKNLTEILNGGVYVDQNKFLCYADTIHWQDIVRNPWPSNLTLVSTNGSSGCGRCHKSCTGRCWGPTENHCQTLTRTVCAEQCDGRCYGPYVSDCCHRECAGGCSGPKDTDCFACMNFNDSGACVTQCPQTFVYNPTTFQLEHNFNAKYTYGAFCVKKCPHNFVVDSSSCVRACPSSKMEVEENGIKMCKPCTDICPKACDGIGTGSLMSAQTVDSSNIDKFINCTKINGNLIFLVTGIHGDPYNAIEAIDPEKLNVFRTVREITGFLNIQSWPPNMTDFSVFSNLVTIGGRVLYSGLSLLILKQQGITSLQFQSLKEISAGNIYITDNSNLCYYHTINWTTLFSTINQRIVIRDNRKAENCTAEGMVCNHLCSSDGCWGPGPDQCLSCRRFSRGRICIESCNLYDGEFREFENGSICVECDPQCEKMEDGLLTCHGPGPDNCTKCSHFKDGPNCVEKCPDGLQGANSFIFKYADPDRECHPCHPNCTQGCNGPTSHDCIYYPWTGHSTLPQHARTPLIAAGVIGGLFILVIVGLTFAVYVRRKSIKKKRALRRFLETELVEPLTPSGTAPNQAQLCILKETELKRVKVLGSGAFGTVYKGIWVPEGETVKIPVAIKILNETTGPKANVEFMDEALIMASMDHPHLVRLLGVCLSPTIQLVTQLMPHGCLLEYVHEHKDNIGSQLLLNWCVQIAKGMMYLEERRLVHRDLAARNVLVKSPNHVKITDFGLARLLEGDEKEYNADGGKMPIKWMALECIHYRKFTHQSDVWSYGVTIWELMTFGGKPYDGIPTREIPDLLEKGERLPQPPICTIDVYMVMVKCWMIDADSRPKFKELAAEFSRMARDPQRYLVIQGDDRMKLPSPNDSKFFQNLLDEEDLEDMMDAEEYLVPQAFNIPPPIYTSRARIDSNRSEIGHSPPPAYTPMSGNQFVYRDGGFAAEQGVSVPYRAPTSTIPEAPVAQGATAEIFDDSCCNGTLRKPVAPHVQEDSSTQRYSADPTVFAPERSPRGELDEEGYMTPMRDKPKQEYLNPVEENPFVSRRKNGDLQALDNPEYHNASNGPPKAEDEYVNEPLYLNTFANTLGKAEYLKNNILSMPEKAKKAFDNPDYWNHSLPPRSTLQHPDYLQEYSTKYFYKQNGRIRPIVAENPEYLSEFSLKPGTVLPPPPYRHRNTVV
# UniProt O75460: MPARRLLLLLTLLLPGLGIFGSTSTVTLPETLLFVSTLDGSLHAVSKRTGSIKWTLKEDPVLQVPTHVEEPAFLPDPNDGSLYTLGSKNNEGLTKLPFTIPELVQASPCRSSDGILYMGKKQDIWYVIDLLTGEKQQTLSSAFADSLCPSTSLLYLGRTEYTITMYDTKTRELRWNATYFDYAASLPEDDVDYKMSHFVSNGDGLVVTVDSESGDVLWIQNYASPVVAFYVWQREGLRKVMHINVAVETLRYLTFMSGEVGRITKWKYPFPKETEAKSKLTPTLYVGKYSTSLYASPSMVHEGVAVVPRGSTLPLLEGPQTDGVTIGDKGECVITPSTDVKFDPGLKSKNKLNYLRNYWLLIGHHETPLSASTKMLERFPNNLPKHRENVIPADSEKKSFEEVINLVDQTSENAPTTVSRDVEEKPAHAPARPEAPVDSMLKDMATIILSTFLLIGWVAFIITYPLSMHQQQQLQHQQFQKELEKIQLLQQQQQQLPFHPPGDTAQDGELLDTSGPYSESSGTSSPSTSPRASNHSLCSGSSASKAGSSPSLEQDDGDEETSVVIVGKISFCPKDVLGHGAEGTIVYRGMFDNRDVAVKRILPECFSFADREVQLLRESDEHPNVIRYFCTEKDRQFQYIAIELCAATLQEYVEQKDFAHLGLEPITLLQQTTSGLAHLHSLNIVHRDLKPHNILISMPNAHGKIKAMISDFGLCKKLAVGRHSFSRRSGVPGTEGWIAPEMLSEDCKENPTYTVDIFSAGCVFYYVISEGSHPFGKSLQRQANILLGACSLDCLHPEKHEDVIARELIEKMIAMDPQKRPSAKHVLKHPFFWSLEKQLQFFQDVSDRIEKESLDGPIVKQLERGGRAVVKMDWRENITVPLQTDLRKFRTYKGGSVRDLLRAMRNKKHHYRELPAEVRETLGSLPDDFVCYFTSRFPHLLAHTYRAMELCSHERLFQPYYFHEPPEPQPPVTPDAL
# UniProt P22607, whole entry, looked up: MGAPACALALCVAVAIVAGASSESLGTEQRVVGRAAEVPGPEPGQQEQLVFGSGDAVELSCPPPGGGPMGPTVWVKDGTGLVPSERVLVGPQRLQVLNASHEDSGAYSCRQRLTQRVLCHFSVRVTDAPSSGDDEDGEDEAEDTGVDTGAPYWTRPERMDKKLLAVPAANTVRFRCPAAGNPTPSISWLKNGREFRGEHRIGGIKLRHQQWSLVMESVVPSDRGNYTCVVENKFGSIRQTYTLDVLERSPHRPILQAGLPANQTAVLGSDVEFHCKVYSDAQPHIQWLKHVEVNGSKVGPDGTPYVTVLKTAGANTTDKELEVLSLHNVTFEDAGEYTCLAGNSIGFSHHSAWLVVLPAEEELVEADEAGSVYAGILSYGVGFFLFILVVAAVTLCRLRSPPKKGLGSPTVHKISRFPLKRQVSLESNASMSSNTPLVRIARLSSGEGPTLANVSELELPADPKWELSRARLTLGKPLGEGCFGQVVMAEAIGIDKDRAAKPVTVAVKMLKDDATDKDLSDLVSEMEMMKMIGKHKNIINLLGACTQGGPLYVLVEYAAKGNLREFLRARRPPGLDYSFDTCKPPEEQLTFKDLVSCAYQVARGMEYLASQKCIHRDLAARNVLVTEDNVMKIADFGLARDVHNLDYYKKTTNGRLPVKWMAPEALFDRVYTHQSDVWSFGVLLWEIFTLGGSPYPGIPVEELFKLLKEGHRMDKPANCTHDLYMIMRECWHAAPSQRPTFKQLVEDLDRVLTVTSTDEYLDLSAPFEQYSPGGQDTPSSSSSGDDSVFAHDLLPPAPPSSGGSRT
# UniProt P06241, whole entry, looked up: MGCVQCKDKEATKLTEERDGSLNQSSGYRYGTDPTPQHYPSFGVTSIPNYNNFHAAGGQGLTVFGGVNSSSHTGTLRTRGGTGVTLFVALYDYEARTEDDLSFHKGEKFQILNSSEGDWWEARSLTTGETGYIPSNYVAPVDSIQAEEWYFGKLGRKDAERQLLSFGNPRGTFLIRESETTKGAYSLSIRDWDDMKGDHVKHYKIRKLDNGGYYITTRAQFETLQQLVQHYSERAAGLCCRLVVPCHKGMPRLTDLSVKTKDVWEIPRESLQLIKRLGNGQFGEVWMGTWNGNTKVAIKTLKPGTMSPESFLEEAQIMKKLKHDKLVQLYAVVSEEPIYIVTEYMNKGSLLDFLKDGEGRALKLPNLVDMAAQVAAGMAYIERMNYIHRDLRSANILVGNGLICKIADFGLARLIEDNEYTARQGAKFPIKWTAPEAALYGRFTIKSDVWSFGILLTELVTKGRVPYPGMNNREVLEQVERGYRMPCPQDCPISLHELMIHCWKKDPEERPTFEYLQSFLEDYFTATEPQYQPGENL
# UniProt P49840: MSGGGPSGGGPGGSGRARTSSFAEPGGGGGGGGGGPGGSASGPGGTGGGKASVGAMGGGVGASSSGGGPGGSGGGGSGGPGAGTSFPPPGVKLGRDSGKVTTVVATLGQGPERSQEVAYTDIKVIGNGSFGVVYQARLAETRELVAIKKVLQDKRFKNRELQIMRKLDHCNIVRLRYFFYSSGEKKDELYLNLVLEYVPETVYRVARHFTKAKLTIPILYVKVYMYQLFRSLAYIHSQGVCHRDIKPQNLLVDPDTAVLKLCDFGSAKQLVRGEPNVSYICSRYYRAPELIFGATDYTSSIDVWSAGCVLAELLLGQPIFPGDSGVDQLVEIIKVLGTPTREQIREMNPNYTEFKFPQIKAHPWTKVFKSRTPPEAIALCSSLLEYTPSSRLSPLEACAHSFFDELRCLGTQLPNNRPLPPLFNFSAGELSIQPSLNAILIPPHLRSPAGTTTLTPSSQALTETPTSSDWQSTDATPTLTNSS
# UniProt P14616: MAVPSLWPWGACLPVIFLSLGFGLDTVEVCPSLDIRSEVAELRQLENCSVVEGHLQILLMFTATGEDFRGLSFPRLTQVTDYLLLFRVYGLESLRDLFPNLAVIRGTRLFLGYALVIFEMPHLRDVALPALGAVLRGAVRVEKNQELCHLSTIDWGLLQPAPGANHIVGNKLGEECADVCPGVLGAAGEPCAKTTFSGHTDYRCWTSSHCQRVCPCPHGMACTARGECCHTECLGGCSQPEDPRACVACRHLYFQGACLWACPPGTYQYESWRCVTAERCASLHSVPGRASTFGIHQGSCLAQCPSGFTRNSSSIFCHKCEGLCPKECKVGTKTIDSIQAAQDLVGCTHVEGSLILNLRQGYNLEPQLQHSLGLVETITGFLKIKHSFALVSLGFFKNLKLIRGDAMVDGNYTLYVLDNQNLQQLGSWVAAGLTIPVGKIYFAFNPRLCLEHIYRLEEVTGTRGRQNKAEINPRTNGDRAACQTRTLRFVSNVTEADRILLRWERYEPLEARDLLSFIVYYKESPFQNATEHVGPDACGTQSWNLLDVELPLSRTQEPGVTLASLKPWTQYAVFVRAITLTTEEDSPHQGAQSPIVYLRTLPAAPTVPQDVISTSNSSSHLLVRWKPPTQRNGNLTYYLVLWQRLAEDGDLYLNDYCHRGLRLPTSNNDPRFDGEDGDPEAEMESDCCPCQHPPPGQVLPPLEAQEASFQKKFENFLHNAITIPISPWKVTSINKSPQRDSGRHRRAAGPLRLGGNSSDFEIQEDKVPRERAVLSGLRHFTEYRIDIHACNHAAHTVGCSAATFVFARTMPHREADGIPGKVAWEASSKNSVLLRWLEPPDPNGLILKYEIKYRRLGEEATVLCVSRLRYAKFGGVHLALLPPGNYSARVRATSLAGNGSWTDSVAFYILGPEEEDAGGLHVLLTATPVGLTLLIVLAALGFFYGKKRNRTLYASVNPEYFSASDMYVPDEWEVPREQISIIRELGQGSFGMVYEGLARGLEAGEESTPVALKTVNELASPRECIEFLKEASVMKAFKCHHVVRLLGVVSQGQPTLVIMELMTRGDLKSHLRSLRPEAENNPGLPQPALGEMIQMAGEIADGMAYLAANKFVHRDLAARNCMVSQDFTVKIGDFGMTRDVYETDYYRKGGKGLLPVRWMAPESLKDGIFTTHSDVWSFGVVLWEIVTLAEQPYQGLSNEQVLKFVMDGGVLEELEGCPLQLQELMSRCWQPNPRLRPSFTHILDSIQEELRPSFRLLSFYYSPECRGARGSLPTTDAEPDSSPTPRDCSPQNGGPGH
# Counter-ions that a name gives are not always drawn. This is one part of the list. Hit calls seldom repeat between salt and free forms of one compound.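 Kinases, fused to nanoluciferase, were expressed in K562 cells; luminescence was measured every 4 h from 2 to 18 h as percent of control (DMSO = 100%, positive control = 0%). A time point is decreased if signal falls significantly (2 sigma). Hits were called by the authors by a rule that is not shown; the count of time points alone does not decide it.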
# Tests used:
# Assay in all cases: kinase-Nluc reporter destabilization hit call (1 = scored as downregulated) (binary); higher = compound decreases kinase abundance
# Conditions in all cases: K562; 2-18 h
# EGFR = EGFR (UniProt P00533)
# EGFR_G719S = EGFR_G719S (UniProt P00533)
# EGFR_G719S_T790M = EGFR_G719S_T790M (UniProt P00533)
# EGFR_L718V = EGFR_L718V (UniProt P00533)
# EGFR_L858R = EGFR_L858R (UniProt P00533)
# EGFR_L861Q = EGFR_L861Q (UniProt P00533)
# EGFR_T790M = EGFR_T790M (UniProt P00533)
# EPHA2 = EPHA2 (UniProt P29317)
# ERBB3 = ERBB3 (UniProt P21860)
# [1] = biological target: ERBB4_R711C (clone: ERBB4_mut) (UniProt Q15303)
# ERN1 = ERN1 (UniProt O75460)
# FGFR1 = FGFR1 (UniProt P11362)
# FGFR2 = FGFR2 (UniProt P21802)
# FGFR3 = FGFR3 (UniProt P22607)
# FGR = FGR (UniProt P09769)
# FLT3 = FLT3 (UniProt P36888)
# FYN = FYN (UniProt P06241)
# GSK3A = GSK3A (UniProt P49840)
# HER2 = HER2 (UniProt P04626)
# INSRR = INSRR (UniProt P14616)
Compound,kinase-Nluc reporter destabilization hit call (EGFR),kinase-Nluc reporter destabilization hit call (EGFR_G719S),kinase-Nluc reporter destabilization hit call (EGFR_G719S_T790M),kinase-Nluc reporter destabilization hit call (EGFR_L718V),kinase-Nluc reporter destabilization hit call (EGFR_L858R),kinase-Nluc reporter destabilization hit call (EGFR_L861Q),kinase-Nluc reporter destabilization hit call (EGFR_T790M),kinase-Nluc reporter destabilization hit call (EPHA2),kinase-Nluc reporter destabilization hit call (ERBB3),kinase-Nluc reporter destabilization hit call [1],kinase-Nluc reporter destabilization hit call (ERN1),kinase-Nluc reporter destabilization hit call (FGFR1),kinase-Nluc reporter destabilization hit call (FGFR2),kinase-Nluc reporter destabilization hit call (FGFR3),kinase-Nluc reporter destabilization hit call (FGR),kinase-Nluc reporter destabilization hit call (FLT3),kinase-Nluc reporter destabilization hit call (FYN),kinase-Nluc reporter destabilization hit call (GSK3A),kinase-Nluc reporter destabilization hit call (HER2),kinase-Nluc reporter destabilization hit call (INSRR)
O=c1cc(O)cc(/C=C/c2ccc(O)c(O)c2)o1 [Hispidin] (10 µM),inactive: 0,inactive: 0,inactive: 0,inactive: 0,inactive: 0,inactive: 0,inactive: 0,inactive: 0,inactive: 0,inactive: 0,inactive: 0,inactive: 0,inactive: 0,inactive: 0,inactive: 0,inactive: 0,inactive: 0,inactive: 0,inactive: 0,inactive: 0
N#CC(c1ccnc(NCCc2cccnc2)n1)c1nc2ccccc2s1 (stereo not given) (10 µM),inactive: 0,inactive: 0,inactive: 0,inactive: 0,inactive: 0,inactive: 0,inactive: 0,inactive: 0,inactive: 0,inactive: 0,inactive: 0,inactive: 0,inactive: 0,inactive: 0,inactive: 0,inactive: 0,inactive: 0,inactive: 0,inactive: 0,inactive: 0
CN1CCN(c2ccc(C(=O)Nc3cc(-c4cccc(NS(=O)(=O)c5ccccc5)c4)[nH]n3)cc2)CC1 [BPR1J-097 Hydrochloride] (2.5 µM),inactive: 0,inactive: 0,inactive: 0,inactive: 0,inactive: 0,inactive: 0,inactive: 0,inactive: 0,inactive: 0,inactive: 0,inactive: 0,inactive: 0,inactive: 0,inactive: 0,inactive: 0,inactive: 0,inactive: 0,inactive: 0,inactive: 0,inactive: 0
CC(C)CN(CC(=O)N1CCN(CC(OCc2ccc3ccccc3c2)c2ccc(Cl)cc2Cl)CC1)CC(C)C (stereo not given) [LYN-1604 (dihydrochloride)] (2.5 µM),inactive: 0,inactive: 0,inactive: 0,inactive: 0,inactive: 0,inactive: 0,inactive: 0,inactive: 0,inactive: 0,inactive: 0,inactive: 0,inactive: 0,inactive: 0,inactive: 0,inactive: 0,inactive: 0,inactive: 0,inactive: 0,inactive: 0,inactive: 0
COCCOc1ccc(-c2cn(-c3ccccc3)c3nc[nH]c(=O)c23)cc1 (10 µM),inactive: 0,inactive: 0,inactive: 0,inactive: 0,inactive: 0,inactive: 0,inactive: 0,inactive: 0,inactive: 0,inactive: 0,inactive: 0,inactive: 0,inactive: 0,inactive: 0,inactive: 0,inactive: 0,inactive: 0,inactive: 0,inactive: 0,inactive: 0
O=C1Nc2nc(-c3c(O)cccc3OCC3CC3)cc([C@@H]3CCCNC3)c2CO1 [Bay 65-1942 (hydrochloride)] (10 µM),inactive: 0,inactive: 0,inactive: 0,inactive: 0,inactive: 0,inactive: 0,inactive: 0,inactive: 0,inactive: 0,inactive: 0,inactive: 0,inactive: 0,inactive: 0,inactive: 0,inactive: 0,inactive: 0,inactive: 0,inactive: 0,inactive: 0,inactive: 0
C=C(CCC=C(C)C)[C@H]1CC[C@]2(C)[C@@H]1[C@H](O)C[C@@H]1[C@@]3(C)CC[C@H](O[C@@H]4O[C@H](CO)[C@@H](O)[C@H](O)[C@H]4O[C@@H]4O[C@H](CO)[C@@H](O)[C@H](O)[C@H]4O)C(C)(C)[C@@H]3CC[C@]12C [Ginsenoside Rk1] (10 µM),inactive: 0,inactive: 0,inactive: 0,inactive: 0,inactive: 0,inactive: 0,inactive: 0,inactive: 0,inactive: 0,inactive: 0,inactive: 0,inactive: 0,inactive: 0,inactive: 0,inactive: 0,inactive: 0,inactive: 0,inactive: 0,inactive: 0,inactive: 0
CC(C)(NS(=O)(=O)c1ccc2c(Cl)cnc(N=C(N)N)c2c1)C(=O)O (10 µM),inactive: 0,inactive: 0,inactive: 0,inactive: 0,inactive: 0,inactive: 0,inactive: 0,inactive: 0,inactive: 0,inactive: 0,inactive: 0,inactive: 0,inactive: 0,inactive: 0,inactive: 0,inactive: 0,inactive: 0,inactive: 0,inactive: 0,inactive: 0
CC1CN(C(=O)Nc2ccc(Cl)c(Cl)c2)C(=Nc2ccc(F)cc2)S1 (stereo not given) (10 µM),inactive: 0,inactive: 0,inactive: 0,inactive: 0,inactive: 0,inactive: 0,inactive: 0,inactive: 0,inactive: 0,inactive: 0,inactive: 0,inactive: 0,inactive: 0,inactive: 0,inactive: 0,inactive: 0,inactive: 0,inactive: 0,inactive: 0,inactive: 0
C[C@]1(O)CCC[C@@H]1n1c(=O)c(C(F)F)cc2cnc(NC3CCN(S(C)(=O)=O)CC3)nc21 (10 µM),inactive: 0,inactive: 0,inactive: 0,inactive: 0,inactive: 0,inactive: 0,inactive: 0,inactive: 0,inactive: 0,inactive: 0,inactive: 0,inactive: 0,inactive: 0,inactive: 0,inactive: 0,inactive: 0,inactive: 0,inactive: 0,inactive: 0,inactive: 0
COc1ccc(-c2ccc3c(N4CCOC[C@@H]4C)nc(N4CCOC[C@@H]4C)nc3n2)cc1CO (2.5 µM),inactive: 0,inactive: 0,inactive: 0,inactive: 0,inactive: 0,inactive: 0,inactive: 0,inactive: 0,inactive: 0,inactive: 0,inactive: 0,inactive: 0,inactive: 0,inactive: 0,inactive: 0,inactive: 0,inactive: 0,inactive: 0,inactive: 0,inactive: 0
NC1(Cc2ccc(Cl)cc2)CCN(c2ncnc3[nH]ccc23)CC1 (10 µM),inactive: 0,inactive: 0,inactive: 0,inactive: 0,inactive: 0,inactive: 0,inactive: 0,inactive: 0,inactive: 0,inactive: 0,inactive: 0,inactive: 0,inactive: 0,inactive: 0,inactive: 0,inactive: 0,inactive: 0,inactive: 0,inactive: 0,inactive: 0
CNC(=O)c1ccc(-c2cnc3cnc(C(=O)N(C)c4ccc(Cl)cc4)cn23)cc1 (2.5 µM),inactive: 0,inactive: 0,inactive: 0,inactive: 0,inactive: 0,inactive: 0,inactive: 0,inactive: 0,inactive: 0,inactive: 0,inactive: 0,inactive: 0,inactive: 0,inactive: 0,inactive: 0,inactive: 0,inactive: 0,inactive: 0,inactive: 0,inactive: 0
Cn1cnc(-c2cc3nccc(Oc4ccc(NC(=S)NC(=O)Cc5ccccc5)cc4F)c3s2)c1 [MGCD-265 analog] (10 µM),inactive: 0,inactive: 0,inactive: 0,inactive: 0,inactive: 0,inactive: 0,inactive: 0,inactive: 0,inactive: 0,inactive: 0,inactive: 0,inactive: 0,inactive: 0,inactive: 0,inactive: 0,inactive: 0,active: 1,inactive: 0,inactive: 0,inactive: 0
CC(C)(C)c1ccc(S(=O)(=O)Nc2ccc(-n3ccnc3)cc2)cc1 (10 µM),inactive: 0,inactive: 0,inactive: 0,inactive: 0,inactive: 0,inactive: 0,inactive: 0,inactive: 0,inactive: 0,inactive: 0,inactive: 0,inactive: 0,inactive: 0,inactive: 0,inactive: 0,inactive: 0,inactive: 0,inactive: 0,inactive: 0,inactive: 0
O=C(Nc1cc(Oc2cc(F)c(NC(=O)C3(C(=O)Nc4ccc(F)cc4)CC3)cc2F)ccn1)C1CC1 [Altiratinib] (10 µM),inactive: 0,inactive: 0,inactive: 0,inactive: 0,inactive: 0,inactive: 0,inactive: 0,inactive: 0,inactive: 0,inactive: 0,inactive: 0,inactive: 0,inactive: 0,inactive: 0,inactive: 0,inactive: 0,inactive: 0,inactive: 0,inactive: 0,inactive: 0

# Some of the entries so far, with bars between the fields:
Compound | kinase-Nluc reporter destabilization hit call (EGFR) | kinase-Nluc reporter destabilization hit call (EGFR_G719S) | kinase-Nluc reporter destabilization hit call (EGFR_G719S_T790M) | kinase-Nluc reporter destabilization hit call (EGFR_L718V) | kinase-Nluc reporter destabilization hit call (EGFR_L858R) | kinase-Nluc reporter destabilization hit call (EGFR_L861Q) | kinase-Nluc reporter destabilization hit call (EGFR_T790M) | kinase-Nluc reporter destabilization hit call (EPHA2) | kinase-Nluc reporter destabilization hit call (ERBB3) | kinase-Nluc reporter destabilization hit call [1] | kinase-Nluc reporter destabilization hit call (ERN1) | kinase-Nluc reporter destabilization hit call (FGFR1) | kinase-Nluc reporter destabilization hit call (FGFR2) | kinase-Nluc reporter destabilization hit call (FGFR3) | kinase-Nluc reporter destabilization hit call (FGR) | kinase-Nluc reporter destabilization hit call (FLT3) | kinase-Nluc reporter destabilization hit call (FYN) | kinase-Nluc reporter destabilization hit call (GSK3A) | kinase-Nluc reporter destabilization hit call (HER2) | kinase-Nluc reporter destabilization hit call (INSRR)
O=C1Nc2nc(-c3c(O)cccc3OCC3CC3)cc([C@@H]3CCCNC3)c2CO1 [Bay 65-1942 (hydrochloride)] (10 µM) | inactive: 0 | inactive: 0 | inactive: 0 | inactive: 0 | inactive: 0 | inactive: 0 | inactive: 0 | inactive: 0 | inactive: 0 | inactive: 0 | inactive: 0 | inactive: 0 | inactive: 0 | inactive: 0 | inactive: 0 | inactive: 0 | inactive: 0 | inactive: 0 | inactive: 0 | inactive: 0
C=C(CCC=C(C)C)[C@H]1CC[C@]2(C)[C@@H]1[C@H](O)C[C@@H]1[C@@]3(C)CC[C@H](O[C@@H]4O[C@H](CO)[C@@H](O)[C@H](O)[C@H]4O[C@@H]4O[C@H](CO)[C@@H](O)[C@H](O)[C@H]4O)C(C)(C)[C@@H]3CC[C@]12C [Ginsenoside Rk1] (10 µM) | inactive: 0 | inactive: 0 | inactive: 0 | inactive: 0 | inactive: 0 | inactive: 0 | inactive: 0 | inactive: 0 | inactive: 0 | inactive: 0 | inactive: 0 | inactive: 0 | inactive: 0 | inactive: 0 | inactive: 0 | inactive: 0 | inactive: 0 | inactive: 0 | inactive: 0 | inactive: 0
